Measured values from US9320277B2, “Fungicide N-cycloalkyl-N-biphenylmethyl-carboxamide derivatives” (BAYER INTELLECTUAL PROPERTY GMBH, priority 2008, dated 2016).
Some of these results come from one statement about several compounds together. At least one structure is not confirmed: it was looked up by name or label, or the drawing left a doubt.

Columns and labels:
[1] = test system: Mycosphaerella graminicola; assay: In vivo test on Mycosphaerella graminicola (wheat leaf spot); settings: dose of 500 ppm; wheat plants sprayed 24 hours before contamination; grading 21 to 28 days after contamination vs control plants
Pyrenophora teres = assay: In vivo test on Pyrenophora teres (barley net blotch); settings: dose of 500 ppm; barley plants sprayed 24 hours before contamination; grading 12 days after contamination vs control plants
Peronospora parasitica = assay: In vivo comparative test on Peronospora parasitica (crucifer downy mildew); settings: dose of 500 ppm; cabbage plants sprayed 24 hours before contamination; grading 5 days after contamination vs control plants
Alternaria brassicae = assay: In vivo test on Alternaria brassicae (leaf spot of crucifers); settings: dose of 500 ppm; radish plants sprayed 24 hours before contamination; grading 6 to 7 days after contamination vs control plants
Sphaerotheca fuliginea = assay: In vivo test on Sphaerotheca fuliginea (cucurbit powdery mildew); settings: dose of 500 ppm; gherkin plants sprayed 24 hours before contamination; grading 21 days after contamination vs control plants

| Compound | protection (% of efficacy) [1] | protection (Pyrenophora teres) | protection (% of disease control) (Peronospora parasitica) | protection (Alternaria brassicae) | protection (% of efficacy) (Sphaerotheca fuliginea) |
| --- | --- | --- | --- | --- | --- |
| CC(c1ccc(-c2ccccc2)cc1)N(C(=O)c1cn(C)nc1C(F)F)C1CC1 (stereo not shown) [Compound 37] | at least 70% |  |  |  |  |
| Cc1nn(C)c(F)c1C(=O)N(Cc1ccc(-c2ccc(Cl)cc2Cl)cc1)C1CC1 [Compound 14] | at least 70% | at least 70% | at least 70% |  |  |
| CC(c1ccc(-c2ccccc2)cc1)N(C(=O)c1c(C(F)(F)F)nn(C)c1F)C1CC1 (stereo not shown) [Compound 34] | at least 70% | at least 70% |  | at least 70% |  |
| Cn1cc(C(=O)N(Cc2ccc(-c3ccccc3)cc2Cl)C2CC2)c(C(F)F)n1 [Compound 38] |  | at least 70% |  | at least 70% | at least 70% |
| CC(c1ccc(-c2ccccc2)cc1)N(C(=O)c1cn(C)nc1I)C1CC1 (stereo not shown) [Compound 40] | at least 70% |  |  |  |  |
| Cn1cc(C(=O)N(Cc2ccc(-c3ccc(F)c(Cl)c3)cc2F)C2CC2)c(C(F)F)n1 [Compound 36] | at least 70% |  |  |  |  |
| CON=Cc1ccc(-c2ccccc2CN(C(=O)c2cn(C)nc2C(F)F)C2CC2)cc1F [Compound 2] | at least 70% | at least 70% |  |  | at least 70% |
| CC(c1ccc(-c2ccccc2)cc1)N(C(=O)c1cn(C)cc1C(F)(F)F)C1CC1 (stereo not shown) [Compound 12] |  | at least 70% |  | at least 70% |  |
| COc1cccc(-c2ccc(CN(C(=O)c3c(C)nn(C)c3F)C3CC3)cc2)c1OC [Compound 30] | at least 70% | at least 70% | at least 70% |  |  |
| Cc1nn(C)c(F)c1C(=O)N(Cc1ccc(-c2ccccc2)cc1Cl)C1CC1 [Compound 33, N-[(3-chlorobiphenyl-4-yl)methyl]-N-cyclopropyl-5-fluoro-1,3-dimethyl-1H-pyrazole-4-carboxamide] |  | at least 70% |  | at least 70% |  |
| COc1nn(C)cc1C(=O)N(C1CC1)C(C)c1ccc(-c2ccccc2)cc1 (stereo not shown) [Compound 41] | at least 70% |  |  |  |  |
| Cn1cc(C(=O)N(Cc2ccccc2-c2ccc(F)cc2)C2CC2)c(C(F)F)n1 [Compound 3] | at least 70% |  |  | at least 70% | at least 70% |
| CON=Cc1ccc(-c2cccc(CN(C(=O)c3cn(C)nc3C(F)F)C3CC3)c2)cc1F [Compound 8] | at least 70% |  |  | at least 70% | at least 70% |
| Cc1nn(C)c(F)c1C(=O)N(C1CC1)C(C)c1ccc(-c2ccccc2)cc1 (stereo not shown) [Compound 29] | at least 70% | at least 70% |  | at least 70% |  |
| Cn1cc(C(=O)N(Cc2cccc(-c3ccc(F)cc3)c2)C2CC2)c(C(F)F)n1 [Compound 7] |  |  | at least 70% | at least 70% | at least 70% |
| Cc1nn(C)c(F)c1C(=O)N(Cc1cccc(-c2ccccc2)c1)C1CC1 [Compound 5] | at least 70% | at least 70% |  | at least 70% | at least 70% |
| CC(c1ccc(-c2ccccc2)cc1)N(C(=O)c1cn(C)nc1C(F)(F)F)C1CC1 (stereo not shown) [Compound 9] | at least 70% |  |  |  |  |
| Cc1nn(C)c(F)c1C(=O)N(C1CC1)C(C)c1ccccc1-c1ccccc1 (stereo not shown) [Compound 1, N-[1-(biphenyl-2-yl)ethyl]-N-cyclopropyl-5-fluoro-1,3-dimethyl-1H-pyrazole-4-carboxamide] | at least 70% | at least 70% |  |  | at least 70% |

| Compound | protection (% of efficacy) [1] | protection (Pyrenophora teres) | protection (% of disease control) (Peronospora parasitica) | protection (Alternaria brassicae) | protection (% of efficacy) (Sphaerotheca fuliginea) |
| --- | --- | --- | --- | --- | --- |
| Cc1nc(C(F)F)c(C(=O)N(C2CC2)C(C)c2ccc(-c3ccccc3)cc2)s1 (stereo not shown) [Compound 11] | at least 70% | at least 70% |  | at least 70% |  |
| CON=Cc1ccc(-c2ccc(CN(C(=O)c3c(C)nn(C)c3F)C3CC3)cc2)c(F)c1 [Compound 24] | at least 70% | at least 70% |  |  |  |
| Cc1nn(C)c(F)c1C(=O)N(Cc1ccc(-c2ccc(Cl)cc2)cc1)C1CC1 [Compound 19] | at least 70% | at least 70% |  |  |  |
| Cc1nn(C)c(F)c1C(=O)N(Cc1ccc(-c2ccc(F)c(Cl)c2)cc1F)C1CC1 [Compound 32] | at least 70% |  |  |  |  |
| CON=C(C)c1cccc(-c2ccc(CN(C(=O)c3c(C)nn(C)c3F)C3CC3)cc2)c1F [Compound 23] | at least 70% | at least 70% |  |  |  |
| CON=Cc1ccc(-c2ccc(CN(C(=O)c3c(C)nn(C)c3F)C3CC3)cc2)cc1F [Compound 20] | at least 70% |  |  |  |  |
| Cn1cc(C(=O)N(Cc2ccc(-c3ccc(F)c(Cl)c3)cc2)C2CC2)c(C(F)F)n1 [Compound 35] | at least 70% |  |  |  |  |
| CON=C(C)c1ccc(F)c(-c2ccc(CN(C(=O)c3c(C)nn(C)c3F)C3CC3)c(F)c2)c1 [Compound 25] | at least 70% | at least 70% |  | at least 70% | at least 70% |
| Cc1nn(C)c(F)c1C(=O)N(Cc1ccc(-c2ccc(F)cc2)cc1F)C1CC1 [Compound 26] |  |  |  | at least 70% |  |
| Cc1nn(C)c(F)c1C(=O)N(Cc1ccc(-c2ccc(F)c(Cl)c2)cc1)C1CC1 [Compound 21] | at least 70% |  |  | at least 70% |  |
| CCc1nn(C)c(F)c1C(=O)N(C1CC1)C(C)c1ccc(-c2ccccc2)cc1 (stereo not shown) [Compound 39] | at least 70% | at least 70% |  | at least 70% | at least 70% |
| Cc1nc(C(F)F)c(C(=O)N(Cc2cccc(-c3ccccc3)c2)C2CC2)s1 [Compound 4] | at least 70% | at least 70% |  |  |  |
| CON=Cc1ccc(-c2ccc(CN(C(=O)c3c(C)nn(C)c3F)C3CC3)c(F)c2)c(F)c1 [Compound 31] | at least 70% | at least 70% |  | at least 70% |  |
| Cc1nn(C)c(F)c1C(=O)N(Cc1ccc(-c2cc(Cl)cc(Cl)c2)cc1F)C1CC1 [Compound 15] | at least 70% | at least 70% |  | at least 70% |  |
| Cc1nn(C)c(F)c1C(=O)N(Cc1ccc(-c2cc(Cl)cc(Cl)c2)cc1)C1CC1 [Compound 17] | at least 70% | at least 70% |  |  |  |
| CON=C(C)c1ccc(F)c(-c2ccc(CN(C(=O)c3c(C)nn(C)c3F)C3CC3)cc2)c1 [Compound 22] | at least 70% | at least 70% |  |  | at least 70% |
| Cc1nn(C)c(F)c1C(=O)N(Cc1ccc(-c2ccc(F)cc2)cc1)C1CC1 [Compound 27] |  |  |  | at least 70% |  |
| COc1ccc(-c2ccc(CN(C(=O)c3c(C)nn(C)c3F)C3CC3)cc2)cc1 [Compound 28] | at least 70% | at least 70% |  |  |  |
